Assay [1] concerns the target FLAG-PSME3 (UniProt P61290). Briefly: proximity ligation; DuoLink In Situ Orange kit in fixed cycling C2C12 cells transfected with FLAG-PSME3; primary antibodies against FLAG and the endogenous partner; controls omitted one or both antibodies.
Assay [2] deals with FLAG-PSME3 (UniProt P61290). Described as above. This is another data set of the same source.
Assay [3] has as its target proteasome activator complex subunit 3 (PSME3), endogenous (mouse (endogenous in C2C12)) (UniProt P61290). The assay can be described thus: co-IP; endogenous PSME3 precipitated with a PSME3-specific antibody and Protein A Dynabeads from Day 0 C2C12 lysate (20 mM Tris-HCl pH 7.5, 100 mM NaCl, 1% NP-40, 1 mM EDTA; overnight at 4°C); Western blot for PSME3 and RPRD1A; isotype IgG control.

Protein sequences, listed by entry. Tags and fused reporters are not part of them.
UniProt P61290: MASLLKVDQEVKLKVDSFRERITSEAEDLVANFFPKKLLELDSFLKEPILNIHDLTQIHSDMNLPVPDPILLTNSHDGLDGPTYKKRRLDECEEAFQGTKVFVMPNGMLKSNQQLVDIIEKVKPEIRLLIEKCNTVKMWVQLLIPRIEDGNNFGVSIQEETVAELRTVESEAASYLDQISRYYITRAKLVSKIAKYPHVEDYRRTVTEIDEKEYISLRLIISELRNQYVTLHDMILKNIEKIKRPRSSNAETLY
UniProt O35685: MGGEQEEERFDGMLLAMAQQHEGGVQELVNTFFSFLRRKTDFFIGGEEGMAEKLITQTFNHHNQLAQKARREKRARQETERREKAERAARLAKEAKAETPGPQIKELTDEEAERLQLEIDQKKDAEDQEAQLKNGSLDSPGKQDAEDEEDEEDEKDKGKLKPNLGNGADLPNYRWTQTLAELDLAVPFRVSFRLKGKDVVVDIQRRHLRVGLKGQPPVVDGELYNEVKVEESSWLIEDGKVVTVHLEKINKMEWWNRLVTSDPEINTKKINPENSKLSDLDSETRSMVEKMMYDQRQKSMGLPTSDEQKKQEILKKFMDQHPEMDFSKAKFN

Read-outs that look alike come from different tables or passages of the source. No constants are given. Whether binding was seen depends on the method and setting. In cells and extracts the contact can be indirect. Some results given as binding are weak or reduced against the parent protein; the word gives no strength.

Turning to “NUDC, endogenous (from UniProt O35685 1-332)”, the binding result in assay [1] is listed as “binds”.

B1: RPRD1A, endogenous (protein, UniProt Q8VDS4 1-312)
chain: MSAFSEAALEKKLSELSNSQQSVQTLSLWLIHHRKHSRPIVTVWERELRKAKPNRKLTFLYLANDVIQNSKRKGPEFTKDFAPVIVEAFKHVSSETDESCKKHLGRVLSIWEERSVYENDVLEQLKHALYGDKKARKRTYEQIKVDENENCSSLGSPSEPPQTLDLVRALQDLENAASGDAAVHQRIASLPVEVQEVSLLEKITDKESGERLSKMVEDACMLLADYNGRLAAEIDDRKQLTRMLADFLRCQKEALAEKEHKLEEYKRKLARVSLVRKELRARIQSLPDLSRLPNVTGSHMHLPFAGDIYSED
As for B1, the binding entry in assay [2] and in assay [3] was “binds” throughout.

The values are drawn from PMC12179657.
